Test results taken from patent publication US20220315554A1, “COMPOUNDS COMPRISING A […] LIGAND AND USE THEREOF” (priority 2019, published 2022).
pKi: −log10 of the molar value. For some of these results: At least one peptide structure holds a part that was inferred or is arguable (an end, a ring closure or a residue). For some of these results: For at least one compound, name, drawing or mass did not settle the structure. Numbered stars: 1 amine (or outer) side, 2 acyl side, 3 side chain; on linkers, the order of the positions; unused ones are H or OH. Bridge positions count the residues as written; N and C are the ends. Square brackets hold non-standard residues; d marks the D form. Peptide text beside a SMILES is read from it. * marks the point of attachment. X2 = O=C(O)CN1CCN(CC(=O)O)CCN(CC(=O)NCCCOCCOCCOCCCN*)CCN(CC(=O)O)CC1; mXylylene = c1cc(C[*:1])cc(C[*:2])c1; Suc = O=C(CCC(=O)[*:2])[*:1]; Nle = CCCC[C@H](N)C(=O)O

Legend:
[1] = 111In-labeled
[2] = target: Ca2+ channel (L, dihydropyridine site); settings: read-out: Ki Ref, reference compound (positive control)

Structure (SMILES) | HPLC Area % appr. 4 h post end of synthesis (radiochemical purity) [1] [%] | HPLC Area % at end of synthesis (radiochemical purity) [1] [%] | pKi [2]
CCCC[C@H](NC(=O)CCC(=O)NCCCOCCOCCOCCCNC(=O)CN1CCN(CC(=O)O)CCN(CC(=O)O)CCN(CC(=O)O)CC1)C(=O)N[C@H]1CSCc2cccc(c2)CSC[C@@H](C(=O)N[C@@H](CC(=O)O)C(N)=O)NC(=O)[C@H](Cc2ccccc2)NC(=O)[C@H](CCC(=O)O)NC(=O)[C@H]([C@@H](C)O)NC(=O)[C@@H]2CCCN2C(=O)[C@@H]2CCCN2C1=O [111In -3BP-3320, metal not drawn] ({X2-Suc}-[Nle]CPPTEFCD-NH2; linker 2-8 via mXylylene) | 96.5 | 97.7 | –
CCCC[C@H](NC(=O)CCC(=O)NCCCOCCOCCOCCCNC(=O)CN1CCN(CC(=O)O)CCN(CC(=O)O)CCN(CC(=O)O)CC1)C(=O)N[C@H]1CSCc2cccc(c2)CSC[C@@H](C(=O)N[C@@H](CC(=O)O)C(=O)N[C@@H](Cc2c[nH]cn2)C(=O)N[C@@H](Cc2ccccc2)C(=O)N[C@@H](CCCNC(=N)N)C(=O)N[C@@H](CC(=O)O)C(N)=O)NC(=O)[C@H](Cc2ccccc2)NC(=O)[C@H](CCC(=O)O)NC(=O)[C@H]([C@@H](C)O)NC(=O)[C@@H]2CCCN2C(=O)[C@@H]2CCCN2C1=O [111In -3BP-3168, metal not drawn] ({X2-Suc}-[Nle]CPPTEFCDHFRD-NH2; linker 2-8 via mXylylene) | 92.3 | 94.2 | –
CCOC(=O)C1=C(C)NC(C)=C(C(=O)OC)C1c1cccc([N+](=O)[O-])c1 (stereo not shown) [nitrendipine] | – | – | 9.85
CCCC[C@H](NC(=O)CCC(=O)NCCCOCCOCCOCCCNC(=O)CN1CCN(CC(=O)O)CCN(CC(=O)O)CCN(CC(=O)O)CC1)C(=O)N[C@H]1CSCc2cccc(c2)CSC[C@@H](C(=O)NCCC(=O)O)NC(=O)[C@H](Cc2ccccc2)NC(=O)[C@H](CCC(N)=O)NC(=O)[C@H]([C@@H](C)O)NC(=O)[C@@H]2CCCN2C(=O)[C@@H]2CCCN2C1=O [111In-3BP-3398, metal not drawn] | 89.2 | 88.6 | –
